Among the data in paper doi:10.1101/2021.04.11.438637 are binding values, retold here.

Sequences of proteins named here, by UniProt entry; tags and fusion partners are left off. A change or cut given only in a name is not applied to a line headed by its entry.
UniProt O04567: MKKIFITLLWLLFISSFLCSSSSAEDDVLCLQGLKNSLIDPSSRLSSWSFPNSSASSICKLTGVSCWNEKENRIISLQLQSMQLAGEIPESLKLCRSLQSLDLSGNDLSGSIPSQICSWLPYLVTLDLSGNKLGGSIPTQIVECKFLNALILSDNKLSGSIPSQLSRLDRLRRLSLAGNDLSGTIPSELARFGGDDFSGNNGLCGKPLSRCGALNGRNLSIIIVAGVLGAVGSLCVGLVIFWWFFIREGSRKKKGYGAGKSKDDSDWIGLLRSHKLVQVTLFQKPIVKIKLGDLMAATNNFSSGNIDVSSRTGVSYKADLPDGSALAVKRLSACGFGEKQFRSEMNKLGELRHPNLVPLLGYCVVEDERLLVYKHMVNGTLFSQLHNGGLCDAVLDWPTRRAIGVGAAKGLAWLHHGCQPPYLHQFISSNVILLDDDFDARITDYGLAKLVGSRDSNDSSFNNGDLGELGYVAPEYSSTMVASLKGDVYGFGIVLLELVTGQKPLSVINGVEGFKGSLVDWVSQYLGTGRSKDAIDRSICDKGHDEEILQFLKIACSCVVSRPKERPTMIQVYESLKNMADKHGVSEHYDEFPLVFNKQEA
UniProt Q9FKN7: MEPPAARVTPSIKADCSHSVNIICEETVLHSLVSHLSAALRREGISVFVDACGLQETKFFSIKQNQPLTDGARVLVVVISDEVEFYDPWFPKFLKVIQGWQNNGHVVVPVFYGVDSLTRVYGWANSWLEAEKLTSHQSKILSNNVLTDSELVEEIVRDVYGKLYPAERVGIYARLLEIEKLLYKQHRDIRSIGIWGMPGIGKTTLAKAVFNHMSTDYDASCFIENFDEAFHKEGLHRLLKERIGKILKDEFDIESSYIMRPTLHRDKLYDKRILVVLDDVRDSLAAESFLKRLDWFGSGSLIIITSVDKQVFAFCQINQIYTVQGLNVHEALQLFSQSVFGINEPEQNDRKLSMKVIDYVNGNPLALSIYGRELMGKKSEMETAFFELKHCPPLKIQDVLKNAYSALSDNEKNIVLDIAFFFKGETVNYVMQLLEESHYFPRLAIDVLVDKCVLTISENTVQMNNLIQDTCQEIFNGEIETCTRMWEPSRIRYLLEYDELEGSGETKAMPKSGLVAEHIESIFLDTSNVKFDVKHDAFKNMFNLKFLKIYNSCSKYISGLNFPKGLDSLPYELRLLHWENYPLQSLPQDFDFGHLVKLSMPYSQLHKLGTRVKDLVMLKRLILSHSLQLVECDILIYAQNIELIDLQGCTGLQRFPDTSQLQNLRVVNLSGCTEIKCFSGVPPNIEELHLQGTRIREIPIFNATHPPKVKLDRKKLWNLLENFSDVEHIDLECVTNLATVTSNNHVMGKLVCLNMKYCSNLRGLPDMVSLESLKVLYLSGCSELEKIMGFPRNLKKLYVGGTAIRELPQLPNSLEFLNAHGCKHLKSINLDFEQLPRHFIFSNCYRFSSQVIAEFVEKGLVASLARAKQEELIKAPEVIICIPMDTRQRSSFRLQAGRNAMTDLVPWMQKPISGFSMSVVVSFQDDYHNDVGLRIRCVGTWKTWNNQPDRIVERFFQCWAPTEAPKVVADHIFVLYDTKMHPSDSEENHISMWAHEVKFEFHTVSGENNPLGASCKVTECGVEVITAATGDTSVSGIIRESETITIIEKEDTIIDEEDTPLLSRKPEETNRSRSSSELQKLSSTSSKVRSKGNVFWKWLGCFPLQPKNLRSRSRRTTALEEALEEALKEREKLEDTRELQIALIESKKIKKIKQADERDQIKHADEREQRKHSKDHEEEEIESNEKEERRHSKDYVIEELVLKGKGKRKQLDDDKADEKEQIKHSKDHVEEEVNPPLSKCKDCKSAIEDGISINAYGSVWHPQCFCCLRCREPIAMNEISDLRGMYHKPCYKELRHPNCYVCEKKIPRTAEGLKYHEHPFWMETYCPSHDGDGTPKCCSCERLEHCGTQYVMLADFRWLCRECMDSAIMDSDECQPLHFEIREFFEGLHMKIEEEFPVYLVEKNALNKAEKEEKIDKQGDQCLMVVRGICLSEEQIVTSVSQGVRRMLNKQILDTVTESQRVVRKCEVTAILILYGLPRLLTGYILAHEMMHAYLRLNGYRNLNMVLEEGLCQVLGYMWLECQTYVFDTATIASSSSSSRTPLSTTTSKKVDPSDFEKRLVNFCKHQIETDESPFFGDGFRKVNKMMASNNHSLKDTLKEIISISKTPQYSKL

The target of experiment [1] is BIR3, split-ubiquitin fusion (Arabidopsis thaliana) (UniProt O04567). Kind of experiment: two-hybrid.
In experiment [2] the target is BIR3-Nluc (Arabidopsis thaliana) (UniProt O04567). Kind of experiment: split reporter.
Experiment [3] has the same target. Kind of experiment: split reporter. The source holds these as a separate data set.
The target in experiment [4] is BIR3-eGFP (Arabidopsis thaliana) (UniProt O04567). The experiment is described as follows: co-IP.
Experiment [5] has as its target BIR1-eGFP (Arabidopsis thaliana). Kind of experiment: co-IP.
The target of experiment [6] is BIR3, split-ubiquitin fusion (Arabidopsis thaliana) (UniProt O04567). Kind of experiment: two-hybrid. The source holds these as a separate data set.

Like-named read-outs stand apart in the source and are kept apart here. These are yes or no findings as the source states them, for the method shown. For part of these data: Binding calls can cover weak binding; strength is not graded here. For part of these data: Tags and fused reporters may be left off the sequences shown. For part of these data: Binding seen in cells or lysates may run through a third protein.

As for “CHS3, split-ubiquitin fusion (from UniProt Q9FKN7 1-1613)”, the binding result in experiment [1] is recorded as “no binding”. Consider CHS3-Cluc (from UniProt Q9FKN7 1-1613), for which, in experiment [2], the binding entry is given as “no binding”.

B1: CSA1-Cluc (protein, UniProt F4KIF3 1-1197)
chain: MTSSSSWVKTDGETPQDQVFINFRGVELRKNFVSHLEKGLKRKGINAFIDTDEEMGQELSVLLERIEGSRIALAIFSPRYTESKWCLKELAKMKERTEQKELVVIPIFYKVQPVTVKELKGDFGDKFRELVKSTDKKTKKEWKEALQYVPFLTGIVLDEKSDEDEVINIIIRKVKEILNRRSEGPPSKCSALPPQRHQKRHETFWGIELRIKQLEEKLRFGSDETTRTIGVVGMPGIGKTTLATMLYEKWNDRFLRHVLIRDIHEASEEDGLNYLATKFLQGLLKVENANIESVQAAHEAYKDQLLETKVLVILDNVSNKDQVDALLGERNWIKKGSKILITTSDKSLMIQSLVNDTYEVPPLSDKDAIKHFIRYAFDGNEGAAPGPGQGNFPKLSKDFVHYTKGNPLALQMLGKELLGKDESHWGLKLNALDQHHNSPPGQSICKMLQRVWEGSYKALSQKEKDALLDIACFRSQDENYVASLLDSDGPSNILEDLVNKFMINIYAGKVDMHDTLYMLSKELGREATATDRKGRHRLWHHHTIIAVLDKNKGGSNIRSIFLDLSDITRKWCFYRHAFAMMRDLRYLKIYSTHCPQECESDIKLNFPEGLLLPLNEVRYLHWLKFPLKEVPQDFNPGNLVDLKLPYSEIERVWEDNKDAPKLKWVNLNHSKKLNTLAGLGKAQNLQELNLEGCTALKEMHVDMENMKFLVFLNLRGCTSLKSLPEIQLISLKTLILSGCSKFKTFQVISDKLEALYLDGTAIKELPCDIGRLQRLVMLNMKGCKKLKRLPDSLGQLKALEELILSGCSKLNEFPETWGNMSRLEILLLDETAIKDMPKILSVRRLCLNKNEKISRLPDLLNKFSQLQWLHLKYCKNLTHVPQLPPNLQYLNVHGCSSLKTVAKPLVCSIPMKHVNSSFIFTNCNELEQAAKEEIVVYAERKCHLLASALKRCDESCVPEILFCTSFPGCEMPSWFSHDAIGSMVEFELPPHWNHNRLSGIALCVVVSFKNCKSHANLIVKFSCEQNNGEGSSSSITWKVGSLIEQDNQEETVESDHVFIGYTNCLDFIKLVKGQGGPKCAPTKASLEFSVRTGTGGEATLEVLKSGFSFVFEPEENRVPSPRNDDVKGKVKINKTPSANGCFKDQAKGNESPKGQWQTYIENSSTNIPSEAHSSQKTGFNGFNGMYSVCVLYEMYSH
Turning to B1, the binding result in experiment [3] was “binds”.

B2: CSA1-V5 (protein, UniProt F4KIF3 1-1197)
chain: MTSSSSWVKTDGETPQDQVFINFRGVELRKNFVSHLEKGLKRKGINAFIDTDEEMGQELSVLLERIEGSRIALAIFSPRYTESKWCLKELAKMKERTEQKELVVIPIFYKVQPVTVKELKGDFGDKFRELVKSTDKKTKKEWKEALQYVPFLTGIVLDEKSDEDEVINIIIRKVKEILNRRSEGPPSKCSALPPQRHQKRHETFWGIELRIKQLEEKLRFGSDETTRTIGVVGMPGIGKTTLATMLYEKWNDRFLRHVLIRDIHEASEEDGLNYLATKFLQGLLKVENANIESVQAAHEAYKDQLLETKVLVILDNVSNKDQVDALLGERNWIKKGSKILITTSDKSLMIQSLVNDTYEVPPLSDKDAIKHFIRYAFDGNEGAAPGPGQGNFPKLSKDFVHYTKGNPLALQMLGKELLGKDESHWGLKLNALDQHHNSPPGQSICKMLQRVWEGSYKALSQKEKDALLDIACFRSQDENYVASLLDSDGPSNILEDLVNKFMINIYAGKVDMHDTLYMLSKELGREATATDRKGRHRLWHHHTIIAVLDKNKGGSNIRSIFLDLSDITRKWCFYRHAFAMMRDLRYLKIYSTHCPQECESDIKLNFPEGLLLPLNEVRYLHWLKFPLKEVPQDFNPGNLVDLKLPYSEIERVWEDNKDAPKLKWVNLNHSKKLNTLAGLGKAQNLQELNLEGCTALKEMHVDMENMKFLVFLNLRGCTSLKSLPEIQLISLKTLILSGCSKFKTFQVISDKLEALYLDGTAIKELPCDIGRLQRLVMLNMKGCKKLKRLPDSLGQLKALEELILSGCSKLNEFPETWGNMSRLEILLLDETAIKDMPKILSVRRLCLNKNEKISRLPDLLNKFSQLQWLHLKYCKNLTHVPQLPPNLQYLNVHGCSSLKTVAKPLVCSIPMKHVNSSFIFTNCNELEQAAKEEIVVYAERKCHLLASALKRCDESCVPEILFCTSFPGCEMPSWFSHDAIGSMVEFELPPHWNHNRLSGIALCVVVSFKNCKSHANLIVKFSCEQNNGEGSSSSITWKVGSLIEQDNQEETVESDHVFIGYTNCLDFIKLVKGQGGPKCAPTKASLEFSVRTGTGGEATLEVLKSGFSFVFEPEENRVPSPRNDDVKGKVKINKTPSANGCFKDQAKGNESPKGQWQTYIENSSTNIPSEAHSSQKTGFNGFNGMYSVCVLYEMYSH
As to B2, the binding entry in experiment [4] and in experiment [5] was “binds” in each case.

B3: CSA1, split-ubiquitin fusion (protein, UniProt F4KIF3 1-1197)
chain: MTSSSSWVKTDGETPQDQVFINFRGVELRKNFVSHLEKGLKRKGINAFIDTDEEMGQELSVLLERIEGSRIALAIFSPRYTESKWCLKELAKMKERTEQKELVVIPIFYKVQPVTVKELKGDFGDKFRELVKSTDKKTKKEWKEALQYVPFLTGIVLDEKSDEDEVINIIIRKVKEILNRRSEGPPSKCSALPPQRHQKRHETFWGIELRIKQLEEKLRFGSDETTRTIGVVGMPGIGKTTLATMLYEKWNDRFLRHVLIRDIHEASEEDGLNYLATKFLQGLLKVENANIESVQAAHEAYKDQLLETKVLVILDNVSNKDQVDALLGERNWIKKGSKILITTSDKSLMIQSLVNDTYEVPPLSDKDAIKHFIRYAFDGNEGAAPGPGQGNFPKLSKDFVHYTKGNPLALQMLGKELLGKDESHWGLKLNALDQHHNSPPGQSICKMLQRVWEGSYKALSQKEKDALLDIACFRSQDENYVASLLDSDGPSNILEDLVNKFMINIYAGKVDMHDTLYMLSKELGREATATDRKGRHRLWHHHTIIAVLDKNKGGSNIRSIFLDLSDITRKWCFYRHAFAMMRDLRYLKIYSTHCPQECESDIKLNFPEGLLLPLNEVRYLHWLKFPLKEVPQDFNPGNLVDLKLPYSEIERVWEDNKDAPKLKWVNLNHSKKLNTLAGLGKAQNLQELNLEGCTALKEMHVDMENMKFLVFLNLRGCTSLKSLPEIQLISLKTLILSGCSKFKTFQVISDKLEALYLDGTAIKELPCDIGRLQRLVMLNMKGCKKLKRLPDSLGQLKALEELILSGCSKLNEFPETWGNMSRLEILLLDETAIKDMPKILSVRRLCLNKNEKISRLPDLLNKFSQLQWLHLKYCKNLTHVPQLPPNLQYLNVHGCSSLKTVAKPLVCSIPMKHVNSSFIFTNCNELEQAAKEEIVVYAERKCHLLASALKRCDESCVPEILFCTSFPGCEMPSWFSHDAIGSMVEFELPPHWNHNRLSGIALCVVVSFKNCKSHANLIVKFSCEQNNGEGSSSSITWKVGSLIEQDNQEETVESDHVFIGYTNCLDFIKLVKGQGGPKCAPTKASLEFSVRTGTGGEATLEVLKSGFSFVFEPEENRVPSPRNDDVKGKVKINKTPSANGCFKDQAKGNESPKGQWQTYIENSSTNIPSEAHSSQKTGFNGFNGMYSVCVLYEMYSH
Regarding B3, the binding entry in experiment [6] is reported as “binds”.
